In paper PMC8465061:

Target: T1, TTHA1359 (CRP/FNR family transcriptional regulator) (Thermus thermophilus HB8) (UniProt Q5SIL0)
T1 sequence (looked up): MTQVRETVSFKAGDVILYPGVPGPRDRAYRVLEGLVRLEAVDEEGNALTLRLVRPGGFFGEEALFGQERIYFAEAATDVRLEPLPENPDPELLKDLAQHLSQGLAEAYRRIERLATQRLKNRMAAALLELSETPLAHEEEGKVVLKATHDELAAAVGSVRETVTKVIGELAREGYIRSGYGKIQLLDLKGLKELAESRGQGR
Assay: BLI
Details: ambiguous fit; BLI: streptavidin tips, 5.7-461 nM TTHA1359, buffer as in cited earlier work; recombinant protein; residues 1-202; label: 5' biotin-dT on strand 2; letters put together from the description

For “CTAGGAATTCGTGCAGAGGTGAATACGAAAAACACACACCATCCCTCCAGAAGCTTGGACA (double strand) [ST2_1359_ctrl (REPSAis)]”, the Kd was > 1 µM.

For at least one entry, the source does not settle the construct or the ends of the probe. Protein sequences can lack the tags named with them.
